Reference: patent US20220241382A1
No constants are given. Whether binding was seen depends on the method and setting. In cells and extracts the contact can be indirect. Some binding calls cover weakened binding; strength is not graded here.

The chains behind the UniProt entries cited, without tags or fusion partners. Where a name states a change or a piece, a line headed by the entry shows the natural chain unless it says otherwise.
UniProt P23804: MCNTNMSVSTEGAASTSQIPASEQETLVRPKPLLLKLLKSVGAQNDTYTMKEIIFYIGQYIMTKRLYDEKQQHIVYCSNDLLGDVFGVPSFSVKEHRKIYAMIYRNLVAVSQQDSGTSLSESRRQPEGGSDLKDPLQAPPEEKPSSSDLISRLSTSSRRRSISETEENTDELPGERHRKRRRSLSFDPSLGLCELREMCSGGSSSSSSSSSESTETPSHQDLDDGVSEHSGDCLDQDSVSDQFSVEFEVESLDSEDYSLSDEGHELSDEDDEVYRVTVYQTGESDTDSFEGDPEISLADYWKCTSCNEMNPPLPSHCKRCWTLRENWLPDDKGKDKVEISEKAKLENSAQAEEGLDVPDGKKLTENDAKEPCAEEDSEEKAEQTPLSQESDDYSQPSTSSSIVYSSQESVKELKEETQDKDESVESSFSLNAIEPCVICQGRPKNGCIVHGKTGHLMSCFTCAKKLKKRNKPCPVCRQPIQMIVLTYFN
UniProt Q61846: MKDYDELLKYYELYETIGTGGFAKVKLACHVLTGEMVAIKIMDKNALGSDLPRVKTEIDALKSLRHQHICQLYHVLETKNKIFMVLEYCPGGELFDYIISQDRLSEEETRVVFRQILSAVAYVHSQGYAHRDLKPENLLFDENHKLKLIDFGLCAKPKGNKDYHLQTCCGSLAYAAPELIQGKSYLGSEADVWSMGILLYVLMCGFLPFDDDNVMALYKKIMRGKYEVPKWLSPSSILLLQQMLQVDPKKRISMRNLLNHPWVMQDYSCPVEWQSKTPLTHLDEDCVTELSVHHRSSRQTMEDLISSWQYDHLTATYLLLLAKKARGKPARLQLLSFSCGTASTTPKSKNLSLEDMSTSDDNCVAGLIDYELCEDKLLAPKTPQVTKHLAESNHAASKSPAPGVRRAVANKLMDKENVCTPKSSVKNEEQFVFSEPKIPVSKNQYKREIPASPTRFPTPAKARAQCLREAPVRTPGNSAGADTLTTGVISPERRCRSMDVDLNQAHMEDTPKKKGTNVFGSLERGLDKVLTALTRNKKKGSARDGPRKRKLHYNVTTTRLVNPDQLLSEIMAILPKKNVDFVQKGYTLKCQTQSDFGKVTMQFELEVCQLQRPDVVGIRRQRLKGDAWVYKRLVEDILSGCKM

How the values were obtained:
Trx (mouse) = target: T1, Trx (mouse) (UniProt P10639); experiment: co-immunoprecipitation (IP anti-MPK38, immunoblot anti-Trx), mouse adipocyte lysate
T1 sequence (looked up): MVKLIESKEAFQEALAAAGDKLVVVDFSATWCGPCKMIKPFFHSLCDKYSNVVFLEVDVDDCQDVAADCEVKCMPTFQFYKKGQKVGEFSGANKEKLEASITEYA

Mdm2 (mouse) = Mdm2 (mouse) (UniProt P23804); experiment: co-immunoprecipitation (IP anti-MPK38, immunoblot anti-Mdm2), mouse adipocyte lysate
ZPR9 (mouse) = target: T2, ZPR9 (mouse) (UniProt Q91VY9); experiment: co-immunoprecipitation (IP anti-MPK38, immunoblot anti-ZPR9), mouse adipocyte lysate
T2 sequence (looked up): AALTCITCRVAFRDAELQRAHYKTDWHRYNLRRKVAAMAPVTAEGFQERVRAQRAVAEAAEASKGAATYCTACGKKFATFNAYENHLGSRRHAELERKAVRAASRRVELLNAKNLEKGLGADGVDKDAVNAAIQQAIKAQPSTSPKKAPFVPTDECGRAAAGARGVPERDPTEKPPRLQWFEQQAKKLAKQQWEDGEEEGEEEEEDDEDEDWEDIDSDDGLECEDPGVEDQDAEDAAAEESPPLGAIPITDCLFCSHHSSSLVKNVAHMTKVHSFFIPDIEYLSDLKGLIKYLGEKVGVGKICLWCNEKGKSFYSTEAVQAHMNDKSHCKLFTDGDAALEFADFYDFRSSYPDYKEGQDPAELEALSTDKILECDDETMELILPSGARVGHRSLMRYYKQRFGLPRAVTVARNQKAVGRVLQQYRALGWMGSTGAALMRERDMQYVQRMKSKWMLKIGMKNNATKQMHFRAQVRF

Measured: binding

murine protein serine-threonine kinase 38 (MPK38) (from UniProt Q61846 1-643) (enzyme)
binds: all assays above
